No constants are given. Whether binding was seen depends on the method and setting. For some assays here: Binding can be weak; no strength is given. For some assays here: Binding seen in cells or lysates may run through a third protein.
How the values were obtained:
GFP-vinculinA50I = GFP-vinculinA50I (UniProt P12003); experiment: co-IP; GFP-vinculin (WT or mutant) coexpressed with HA-Rab5 (WT) in Cos-7, precipitated with anti-GFP; western blot with anti-GFP and anti-HA
His-vin881-1066 = His-vin881-1066 (UniProt P12003); experiment: pull-down; GST-Rab5 (Q79L) incubated with purified His-vinculin deletion mutants, His-pull-down; beads assayed by western blot; both purified
[1] = molecular target: His-vin1-1066 (full length) (UniProt P12003); experiment: as above
GST-Rab5 (S34N) = GST-Rab5 (S34N) (UniProt P20339); experiment: pull-down; 5 µg GST-Rab5 (Q79L or S34N) on glutathione beads, incubated with purified His-vinculin 60 min at 4°C; wash buffer 20 mM HEPES, 100 mM NaCl, 5 mM MgCl2, 1 mM DTT, pH 7.6; western blot; both purified
GST-Rab5 (Q79L) = GST-Rab5 (Q79L) (UniProt P20339); experiment: as above

The chains behind the UniProt entries cited, without tags or fusion partners. Where a name states a change or a piece, a line headed by the entry shows the natural chain unless it says otherwise.
UniProt P12003: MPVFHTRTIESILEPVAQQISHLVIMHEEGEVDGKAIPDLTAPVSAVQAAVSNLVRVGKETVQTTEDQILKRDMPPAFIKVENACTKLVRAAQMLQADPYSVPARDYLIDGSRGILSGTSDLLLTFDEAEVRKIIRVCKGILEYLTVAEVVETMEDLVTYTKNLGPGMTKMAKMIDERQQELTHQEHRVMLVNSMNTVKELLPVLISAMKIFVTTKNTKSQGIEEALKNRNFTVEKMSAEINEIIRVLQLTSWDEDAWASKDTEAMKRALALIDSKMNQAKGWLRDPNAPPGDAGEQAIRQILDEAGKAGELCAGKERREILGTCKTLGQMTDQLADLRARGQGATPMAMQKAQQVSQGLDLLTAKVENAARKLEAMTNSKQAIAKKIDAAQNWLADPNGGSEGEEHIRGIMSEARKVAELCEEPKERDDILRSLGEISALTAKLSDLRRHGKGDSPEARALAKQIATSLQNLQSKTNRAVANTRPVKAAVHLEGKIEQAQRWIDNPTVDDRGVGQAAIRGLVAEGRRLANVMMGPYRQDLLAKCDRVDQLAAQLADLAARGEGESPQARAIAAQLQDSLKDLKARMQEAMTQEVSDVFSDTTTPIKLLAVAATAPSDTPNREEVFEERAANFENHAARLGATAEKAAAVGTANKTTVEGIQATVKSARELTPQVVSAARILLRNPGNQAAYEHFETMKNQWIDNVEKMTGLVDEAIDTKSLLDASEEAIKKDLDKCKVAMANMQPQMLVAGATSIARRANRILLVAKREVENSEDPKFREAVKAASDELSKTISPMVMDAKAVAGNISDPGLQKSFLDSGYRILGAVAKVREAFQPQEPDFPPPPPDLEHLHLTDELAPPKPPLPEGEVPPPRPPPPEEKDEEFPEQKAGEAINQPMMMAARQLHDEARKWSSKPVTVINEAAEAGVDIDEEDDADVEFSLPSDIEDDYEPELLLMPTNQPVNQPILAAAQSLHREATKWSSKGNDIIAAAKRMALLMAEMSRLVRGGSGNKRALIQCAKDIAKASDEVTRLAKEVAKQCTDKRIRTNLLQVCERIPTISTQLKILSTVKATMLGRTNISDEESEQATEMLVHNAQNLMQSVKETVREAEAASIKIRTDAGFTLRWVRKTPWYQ
UniProt P20339: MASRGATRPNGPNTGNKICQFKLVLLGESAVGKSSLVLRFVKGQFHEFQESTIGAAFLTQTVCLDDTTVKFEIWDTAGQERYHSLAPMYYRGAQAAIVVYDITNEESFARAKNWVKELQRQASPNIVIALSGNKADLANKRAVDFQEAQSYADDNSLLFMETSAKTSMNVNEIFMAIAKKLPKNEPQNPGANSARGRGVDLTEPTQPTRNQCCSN

HA-Rab5 (WT) (from UniProt P20339 1-215)
binding (GFP-vinculinA50I): no binding

GST-Rab5 (Q79L) (from UniProt P20339 1-215)
binding (His-vin881-1066): no binding
binding [1]: binds

His-vin1-1066 (full length) (from UniProt P12003-2)
binding (GST-Rab5 (S34N)): binds
binding (GST-Rab5 (Q79L)): binds

— paper PMC3900708
